Data published in paper PMC4102805.
These are yes or no findings as the source states them, for the method shown. Binding seen in cells or lysates may run through a third protein. Some results given as binding are weak or reduced against the parent protein; the word gives no strength.

Chains of the proteins cited; added tags and fusions are not shown. Residues count along the entry.
UniProt P26447: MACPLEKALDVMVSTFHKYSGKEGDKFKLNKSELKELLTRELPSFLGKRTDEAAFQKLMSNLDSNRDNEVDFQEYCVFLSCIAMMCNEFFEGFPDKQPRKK
UniProt Q15109, residues 23-404: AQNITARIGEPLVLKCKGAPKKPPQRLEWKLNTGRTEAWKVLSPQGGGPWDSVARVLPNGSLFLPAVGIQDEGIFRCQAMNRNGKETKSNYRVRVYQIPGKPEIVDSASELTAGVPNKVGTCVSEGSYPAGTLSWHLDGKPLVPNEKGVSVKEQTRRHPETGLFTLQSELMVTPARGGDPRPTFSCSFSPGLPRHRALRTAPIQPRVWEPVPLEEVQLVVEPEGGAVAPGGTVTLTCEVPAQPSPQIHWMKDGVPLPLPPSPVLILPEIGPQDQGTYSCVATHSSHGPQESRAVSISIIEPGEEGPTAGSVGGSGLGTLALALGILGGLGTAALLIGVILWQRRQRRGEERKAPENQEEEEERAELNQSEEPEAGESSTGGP

Legend:
[1] = molecular target: recombinant human S100A4 (human) (UniProt P26447); assay: condition: only with 25 µg RAGE H300 antibody (sc-5563) added to the lysate; pull-down; as a1, but 25 µg RAGE H300 antibody (sc-5563) added to the lysate prior to bead incubation; only the target purified
[2] = molecular target: recombinant human S100A4 (human) (UniProt P26447); assay: pull-down; rS100A4 covalently coupled to Dynabeads, blocked with 2% BSA in PBS; incubated with RIPA lysate of 3 x 10^7 HCT116/RAGE cells overnight at 4°C; washed three times with PBS; Western blot for RAGE; only the target purified

receptor for advanced glycation end products (RAGE), human full length (from UniProt Q15109 23-404)
binding [1]: no binding
binding [2]: binds
